Structure (SMILES): CC(C)C(=O)NC[C@H]1CN(c2ccc3c(c2)CCCc2cn[nH]c2-3)C(=O)O1
- melting point: 238 to 240 °C

— patent US20050288273A1, “Antibacterial agents” (priority 2003, published 2005)
